This data set can be described thus: Environmental performance scoring (persistence, bioaccumulation, final score). Particulars: scale 0-100; for Persistence score: inorganic ingredient, half-life in water, sediment and soil from peer-reviewed literature, Table 1 and Table 3.

On to `OCC(O)CO` [Glycerin], for which the Bioaccumulation score turned out to be 100. The “Final Score (environmental performance score)” value (PBT score minus penalties, P 75%, T 25% weight) worked out at 100. For the molecule `[Zn+2]` [Zn^2+], the Persistence score result is recorded as “zero”.

`[O]=[Zn]` [zinc oxide]: the Bioaccumulation score is listed as 100 and the Persistence score result was “zero”.

The record behind these values is patent publication US9595012B2, “Method for improving the environmental impact of formulated products” (Johnson & Johnson Consumer Inc., priority 2010, dated 2017).
